Test results as given in US20060252918A1, “Use of hepatitis virus (hcv) p7 protein” (priority 2002, published 2006).
Results are given in words; binding and its absence hold for the method and conditions named. Some entries that bind do so weakly or less than the wild type.

By UniProt entry, the sequences of proteins in these tests, tags left out. Residues count along the entry.
UniProt O92972, residues 747-809: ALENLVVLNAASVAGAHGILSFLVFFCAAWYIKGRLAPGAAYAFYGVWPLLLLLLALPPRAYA

Assays:
[1] = molecular target: GSTp7 fusion protein (hepatitis C virus 1B, J4 isolate) (UniProt O92972); test: self-association, electron microscopy
[2] = molecular target: GSTp7 fusion protein (hepatitis C virus 1B, J4 isolate) (UniProt O92972); test: self-association, transmission electron microscopy of GSTp7 in liposomes (FIG. 2)

GSTp7 fusion protein (from UniProt O92972 747-809)
binding [1]: binds
binding [2]: binds
